This is one part of the list. Shown are side measurements of this screen, not its main read-out; they come without a call. Compounds called inactive in the main read-out are mostly missing here. Words in brackets tell the shape of the fitted curve; partial curves, single points and poor fits give uncertain potencies.
Experiment: IkB Signaling
Settings: ABC-DLBCL IkBa-CBG/CBR dual luciferase ratio (green luciferase fused to IkBa over red control in OCI-Ly3 lymphoma cells), 4 h
Excerpt: NIH Molecular Libraries Screening Centers Network [MLSCN]
NIH Chemical Genomics Center [NCGC]
Nuclear factor kappa-B (NF-kappa-B) plays an important role in normal B cell development and survival. Diffuse large B cell lymphoma (DLBCL) is the most commonly observed type of non-Hodgkin's lymphoma. Gene expression analysis has identified an activated B cell-like subtype of DLBCL (ABC-DLBCL) which expresses known NF-kappa-B target genes. […] However, targets upstream of IKK have been largely unexplored and so nodes upstream of IKK in the NF-kappa-B pathway remain untested due to the lack of chemical probes.
A cell-sensor assay for I-kappa-B-alpha stabilization was developed with NIH investigator Dr. R. Eric Davis in Dr. Louis M. Staudt's laboratory. The assay uses green (CBG68) and red (CBR) emitting beetle luciferases [Chroma-Glo(TM) developed by Promega Corp.] where the green luciferase is fused to I-kappa-B-alpha and the red luciferase is present in its native state. Both luciferase genes are stably present in the OCI-Ly3 human ABC DLBCL cell line, but their expression is under the control of tetracycline-inducible promoters. Following the addition of doxycycline to induce expression of the luciferases, the green luminescence in control cultures rises only slowly because the CBG fusion partner I-kappa-B-alpha is targeted by IKK activity for rapid degradation. In contrast, green luminescence rises rapidly in the presence of proteasome inhibitors or IKK inhibitors. The rise in red luminescence of CBR is not affected by proteasome or IKK inhibitors, and serves as normalization for cell number and nonspecific effects. Compounds were screened as a concentration-titration series that ranged from 57 uM to 0.7 nM.
NCGC Assay Protocol Summary:
Cells were seeded in 1536-well plates at 5000 cells/3ul in IMDM medium containing 0.5% FBS, w/o phenol red, L-glutamine, 25 mM HEPES, 3 mg/ml sodium bicarbonate. After centrifugation for 1 min. at 1000 rpm, 23 nl of compounds or DMSO were delivered to each well using a pin tool. Then 1ul 80ng/ml doxycycline was dispensed into white solid 1536-well plates and the plates were incubated at 37C/5% C02 in a cell incubator for 4 hrs. Then 4 ul Chroma-Glo luminescent substrate mix (Promega) was added to each well. The plate was incubated at R.T. for 10-15 min. The plates were measured on a ViewLux plate reader for green luminescence (540/20 nm filter) and red luminescence (618/8 nm filter). The green and red luminescent signals were corrected for red and green luminescence filter overlap using previously determined filter calibration constants (determined using the procedure outlined in the Promega Technical Manual). The %Activity was determined from the ratio of corrected green/red luminescent values. Green luminescent and ratio %Activity was determined by normalizing to the difference in signal between basal cells (0% Activity) and cells incubated with 10 uM of the proteasome inhibitor MG-132 (100% Activity). Red luminescent %Activity was normalized to the difference between red luminesence in basal cells (0%Activity) and zero luminescence (-100% Activity).
Concentration-response curves were fitted to the signals arising from the green luminescence (I-kappa-B-alpha-luciferase fusion; IkB-luc) and the red luminescence (unfused luciferase; luc) as well as the calculated ratio. The concentration-effect curves were then classified based on curve quality (r2), response magnitude and degree of measured activity. Compounds were then categorized based on their concentration-response curves for all three datasets (Ikb-luc, luc and ratio).
Keywords: IKK, I-kappa-B, IkB, IkBa, cytotoxicity, luminescence, MLSMR, MLSCN, NIH Roadmap, qHTS, NCGC

[1] = measured here: control luc red channel unless noted

For `CCOC(=O)C1=C(C)NC(SCc2cc(=O)[nH][nH]2)=C(C#N)C1c1cccs1` (stereo not given), the AC50 [1] was 15.8 µM [falling, partial curve].
In the case of `O[C@H](CN1CCN(c2cccc(Cl)c2)CC1)C(c1ccccc1)c1ccccc1`, the AC50 [1] is reported as 25.1 µM [falling, partial curve].
In the case of `CCOc1ccc(-n2cc(C(=O)Nc3ccccc3OCC)c3cc(OC)c(OC)cc3c2=O)cc1`, the AC50 [1] is reported as 25.1 µM [falling, partial curve].
With `CCOC(=O)c1c(NC(=O)CS(=O)(=O)c2ccc(C)cc2)sc2c1CCC(C)C2` (stereo not given) the AC50 [1] was 25.1 µM [falling, partial curve, poor fit].
With `CC1CCN(C(=O)Cn2cc(SCc3cccc(F)c3)c3ccccc32)CC1` the AC50 [1] was 10 µM [falling, partial curve].
In the case of `CC1CCN(C(=O)Cn2cc(SCc3ccccc3)c3ccccc32)CC1`, the AC50 [1] is reported as 12.6 µM [falling, partial curve].
For `CCCc1nnc(N2C(=O)c3oc4ccc(F)cc4c(=O)c3C2c2ccc(C(=O)OC)cc2)s1` (stereo not given), the AC50 [1] was 25.1 µM [falling, single point].
With `Cc1ccc(-c2cc(C(=O)Nc3c(C(=O)c4ccccc4)oc4ccccc34)no2)cc1F` the AC50 [1] was 20 µM [falling, single point].
In the case of `Cc1ccc(Cc2nc3ccccc3nc2SCC(=O)Nc2cccc(C(F)(F)F)c2)cc1`, the AC50 [1] is reported as 31.6 µM [falling, partial curve, poor fit].
With `CCNC(=O)NC(=O)COc1ccccc1C#N` the AC50 [1] was 12.6 µM [falling, partial curve].
In the case of `O=c1c2ccccc2nnn1CSc1nnc(COc2ccc(Cl)cc2)n1Cc1ccco1`, the AC50 [1] is reported as 7.94 µM [falling, partial curve].
With `Cc1ccc(-n2ncc3c(NC4CCCCC4)ncnc32)cc1` the AC50 [1] was 1.58 µM [falling, partial curve].
With `Cc1ccc(C)c(NS(=O)(=O)c2ccc(NC(=O)c3ccco3)cc2)c1` the AC50 [1] was 10 µM [rising, partial curve, poor fit] [measured here: IkB-luc green channel].
In the case of `COc1ccccc1C(=O)N1CCN(c2nc3cc(C)c(C)cc3cc2C#N)CC1`, the AC50 (measured here: IkB-luc green channel) is reported as 39.8 µM [falling, single point] and the AC50 (measured here: control luc red channel) is reported as 15.8 µM [falling, partial curve].
With `CC(C)(C)c1ccc(S(=O)(=O)NCc2nc3cccnc3n2Cc2ccccc2Cl)cc1` the AC50 [1] was 39.8 µM [falling, single point].
For `Cc1nn(CC(=O)NCCc2ccccc2Cl)c(=O)c2nn(-c3ccccc3)c(C)c12`, the AC50 [1] was 5.01 µM [rising, partial curve].
For `O=S(=O)(c1ccccc1)N1CCC(c2ccncc2)CC1`, the AC50 [1] was 39.8 µM [falling, single point].
For `CCOc1ccc(CNC(=O)Cn2nc(C)c3nn(-c4ccc(Cl)cc4)c(C)c3c2=O)cc1OC`, the AC50 [1] was 25.1 µM [falling, partial curve].
In the case of `CCC(C)NC(=O)c1sc2nc(C)c(C(=O)Nc3ccc(C)cc3C)c(-c3ccc(Cl)cc3)c2c1N` (stereo not given), the AC50 [1] is reported as 5.01 µM [falling, full curve].
In the case of `O=C(CSc1ccccc1)NCc1ccc2c(c1)CCN2C(=O)c1ccc(F)cc1`, the AC50 [1] is reported as 1.26 µM [falling, partial curve].
For `Cn1c(SCc2cnc(-c3ccccc3)s2)nnc1C1COc2ccccc2O1` (stereo not given), the AC50 [1] was 25.1 µM [falling, single point].
For `O=C(Cc1ccccc1)N(Cc1cccnc1)c1nc2ccc(F)cc2s1`, the AC50 [1] was 39.8 µM [falling, single point].
With `CCOc1cccc(NC(=O)Cc2cccs2)c1` the AC50 [1] was 25.1 µM [rising, partial curve, poor fit].
With `O=C(Nc1cccc2cccnc12)c1ccc(F)cc1` the AC50 [1] was 31.6 µM [falling, partial curve, poor fit].
With `O=C(COc1ccc(S(=O)(=O)NC2CCCCC2)cc1)Nc1ccc2c(c1)OCCO2` the AC50 [1] was 15.8 µM [falling, partial curve].
In the case of `Cc1ccccc1-c1nnc(C2CCN(S(=O)(=O)c3ccc(Cl)cc3)CC2)o1`, the AC50 [1] is reported as 20 µM [falling, partial curve].
For `Cc1nc(N2CCCC2)c2c(C(=O)N3CCN(c4cccc(C)c4C)CC3)c(C)oc2n1`, the AC50 [1] was 25.1 µM [falling, single point].
For `Cc1c(C(=O)NCCC2=CCCCC2)oc2ccc(S(=O)(=O)N3CCC4(CC3)OCCO4)cc12`, the AC50 [1] was 6.31 µM [falling, partial curve].
For `O=C(CSc1nc(-c2ccccc2)[nH]c1-c1ccccc1)Nc1ccc2c(c1)OCCO2`, the AC50 [1] was 10 µM [falling, partial curve].
For `O=C(Nc1cccnc1)c1cc(-c2ccco2)on1`, the AC50 [1] was 6.31 µM [falling, partial curve].
For `O=C(CN1CCN(c2ncccn2)CC1)Nc1ccccc1-n1cccc1`, the AC50 [1] was 25.1 µM [falling, single point].
For `CCCSCCCNC(=O)c1ccc2c(c1)nc1n2CCCCC1`, the AC50 [1] was 15.8 µM [falling, partial curve].
With `CC(C)c1cc(-c2nc(-c3ccccc3)no2)n[nH]1` the AC50 [1] was 0.0158 µM [falling, full curve].
With `COc1ccc(S(=O)(=O)N2CCN(Cc3ccc4c(c3)OCO4)CC2)cc1OC` the AC50 [1] was 31.6 µM [falling, single point].
For `CN(CC(=O)Nc1ccccc1Cl)S(=O)(=O)c1ccc(C(=O)N2CCOCC2)s1`, the AC50 [1] was 0.794 µM [falling, full curve, poor fit].
For `Cc1cccc(-c2nnc3n2N=C(c2ccccc2Br)CS3)c1`, the AC50 [1] was 20 µM [falling, single point].
With `COc1ccc(-c2noc(CN(C)S(=O)(=O)c3ccccc3)n2)cc1OC` the AC50 [1] was 398 nM [falling, full curve] [measured here: IkB-luc green channel].
In the case of `COc1cc(Cl)c(NC(=O)C2CCN(S(=O)(=O)c3c(C)noc3/C=C/c3ccccc3F)CC2)c(OC)c1`, the AC50 [1] is reported as 7.94 µM [falling, full curve, poor fit].
In the case of `O=C(CCCn1c(=O)[nH]c2ccccc2c1=O)NCc1ccccc1Cl`, the AC50 [1] is reported as 6.31 µM [rising, partial curve].
